# Where a chain is given by its changes, count along the chain named. No constants are given. Whether binding was seen depends on the method and setting. Binding seen in cells or lysates may run through a third protein. Some entries that bind do so weakly or less than the wild type. Sequences can lack the tags named with a protein.
# B1: Spn-F-myc (protein, UniProt Q9V9Y9 1-364)
# chain: MEASAAKITPMASSMSASGSTNSPSSEKMNYALQVALQTIKERCIQLQRRVASMEEENQQLREASSRSEGAPRANEIGVTGDVLSLKAQVSELQRQKEQLEEHIGMVSNENRRLWSRLSQISKDQQLNALPSSTDSRAQQNQNLVRSKTFTQHSPNPHLRQKMLSDGIKDLSLEEIALDDFGASSEELGYPYNLQKVEETTSEPDANVDAKRCLDGLQELRREAMKQQQELRSVMTLLENRIALKPCPECAQKTIKKPEMADKSLETDDSLTSELKNYESQHNGHNGTPPSQRINIIQEKIKADAADAMEKTCPMCGKQYSSQVSFNAFREHVEMHFIDDALELESENSIERQFEFVSHAVGDF
# B2: myc-Rab11-DN (protein, UniProt O18335 1-214)
# chain: MGAREDEYDYLFKVVLIGDSGVGKNNLLSRFTRNEFNLESKSTIGVEFATRSIEVDGKTIKAQIWDTAGQERYRAITSAYYRGAVGALLVYDIAKHLTYENVERWLRELRDHADQNIVIMLVGNKSDLRHLRSVPTDEAKLFAERNGLSFIETSALDSTNVETAFQNILTEIYRIVSQKQIRDPPEGDVIRPSNVEPIDVKPTVTADVRKQCCQ
# B3: SpnF-ΔC-myc (domain or fragment, UniProt Q9V9Y9 1-339)
# chain: MEASAAKITPMASSMSASGSTNSPSSEKMNYALQVALQTIKERCIQLQRRVASMEEENQQLREASSRSEGAPRANEIGVTGDVLSLKAQVSELQRQKEQLEEHIGMVSNENRRLWSRLSQISKDQQLNALPSSTDSRAQQNQNLVRSKTFTQHSPNPHLRQKMLSDGIKDLSLEEIALDDFGASSEELGYPYNLQKVEETTSEPDANVDAKRCLDGLQELRREAMKQQQELRSVMTLLENRIALKPCPECAQKTIKKPEMADKSLETDDSLTSELKNYESQHNGHNGTPPSQRINIIQEKIKADAADAMEKTCPMCGKQYSSQVSFNAFREHVEMHFID
# Columns and labels:
# [1] = target: T1, endogenous Rab11 (Drosophila (endogenous in S2 cells)) (UniProt O18335); assay: co-IP; co-immunoprecipitation with anti-Rab11 antibodies from lysates of Drosophila S2 cells expressing Spn-F-myc or control GFP-myc; immunoblot
# T1 sequence: B2 chain with N25S
# [2] = target: T2, FLAG-Rab11-DN (Drosophila) (UniProt O18335); assay: co-IP; lysates of co-transfected S2 cells (20 mM Tris pH 7.0, 150 mM NaCl, 2 mM EDTA, 1% TritonX-100, 1 mM DTT) incubated with anti-FLAG M2 agarose beads on ice, washed with lysis buffer; immunoblot
# T2 sequence: B2 chain
# Spn-F-FLAG (Drosophila) = target: T3, Spn-F-FLAG (Drosophila) (UniProt Q9V9Y9); assay: as above
# T3 sequence: B1 chain
Binder,binding [1],binding [2],binding (Spn-F-FLAG (Drosophila))
B1,binds,binds,–
B2,–,–,binds
B3,–,binds,–
